The target of experiment [1] is T1, GST-Hop2 fusion protein (homologous pairing protein 2) (UniProt O35047).
T1 sequence: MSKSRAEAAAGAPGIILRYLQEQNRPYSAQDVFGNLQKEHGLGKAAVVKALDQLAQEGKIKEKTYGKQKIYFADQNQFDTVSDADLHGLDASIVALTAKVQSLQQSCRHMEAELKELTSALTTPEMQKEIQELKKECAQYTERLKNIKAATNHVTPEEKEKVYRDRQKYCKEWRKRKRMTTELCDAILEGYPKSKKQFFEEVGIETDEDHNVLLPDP
As to the kind of experiment: pull-down; GST-Hop2 or GST bound on glutathione-sepharose 4B, incubated with purified His-C/EBPα (1 μg) for 2 h in PBS pH 7.4 at 4 °C; three washes with PBS; SDS-PAGE, Coomassie staining; both purified.

The chains behind the UniProt entries cited, without tags or fusion partners. Where a name states a change or a piece, a line headed by the entry shows the natural chain unless it says otherwise.
UniProt P28033: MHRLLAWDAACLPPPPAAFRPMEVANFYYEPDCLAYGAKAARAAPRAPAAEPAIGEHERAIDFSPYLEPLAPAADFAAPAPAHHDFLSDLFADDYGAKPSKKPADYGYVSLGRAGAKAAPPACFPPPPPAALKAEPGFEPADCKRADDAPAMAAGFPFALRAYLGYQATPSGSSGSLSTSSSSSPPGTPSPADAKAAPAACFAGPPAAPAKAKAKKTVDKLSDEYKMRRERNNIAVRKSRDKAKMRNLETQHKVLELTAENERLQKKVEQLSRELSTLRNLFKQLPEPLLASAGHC
UniProt P53566: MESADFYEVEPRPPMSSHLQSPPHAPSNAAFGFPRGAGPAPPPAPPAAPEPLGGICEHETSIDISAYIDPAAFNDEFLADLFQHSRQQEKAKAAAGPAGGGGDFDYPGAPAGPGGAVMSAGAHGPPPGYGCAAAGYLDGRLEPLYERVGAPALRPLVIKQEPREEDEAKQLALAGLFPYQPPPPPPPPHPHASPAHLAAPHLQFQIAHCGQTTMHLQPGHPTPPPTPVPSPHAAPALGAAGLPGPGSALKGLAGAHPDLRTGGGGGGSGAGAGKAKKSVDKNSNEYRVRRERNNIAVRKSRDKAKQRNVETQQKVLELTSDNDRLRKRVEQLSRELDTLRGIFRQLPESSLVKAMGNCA

The target in experiment [2] is T2, endogenous Hop2 (homologous pairing protein 2) (mouse (endogenous in mouse visceral adipose tissue and 3T3-L1 cells)) (UniProt O35047).
T2 sequence: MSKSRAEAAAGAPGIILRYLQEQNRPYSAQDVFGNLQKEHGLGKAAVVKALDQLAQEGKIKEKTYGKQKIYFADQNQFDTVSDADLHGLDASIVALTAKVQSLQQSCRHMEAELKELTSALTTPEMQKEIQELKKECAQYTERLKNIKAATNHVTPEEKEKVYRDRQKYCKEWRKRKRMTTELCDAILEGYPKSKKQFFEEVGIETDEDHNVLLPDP
As to the kind of experiment: co-IP; Nuclear extracts of wt mouse visceral adipose tissue; IP with antibodies against Hop2, CEBPα, CEBPβ or CEBPδ, anti-IgG as negative control; Western blot; endogenous proteins. On the technique in general: A western blot detects proteins with antibodies after separation by electrophoresis.

Experiment [3] concerns the target T2, endogenous Hop2 (homologous pairing protein 2) (mouse (endogenous in mouse visceral adipose tissue and 3T3-L1 cells)). The experiment can be described thus: co-IP; Nuclear extracts of differentiating 3T3-L1 cultures after adipogenic induction (day 2 for CEBPβ and CEBPδ, day 4 for CEBPα); endogenous proteins; Western blot.
The target of experiment [4] is T3, hemagglutinin (HA)-tagged Hop2 (UniProt O35047).
T3 sequence: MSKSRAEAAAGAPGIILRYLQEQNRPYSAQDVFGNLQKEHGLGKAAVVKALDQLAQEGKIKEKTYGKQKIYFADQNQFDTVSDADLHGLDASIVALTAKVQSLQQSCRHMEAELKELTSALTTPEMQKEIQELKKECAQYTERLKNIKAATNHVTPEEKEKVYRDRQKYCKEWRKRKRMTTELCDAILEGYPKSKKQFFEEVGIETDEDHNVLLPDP
The experiment can be described thus: co-IP; Nuclear extracts of COS1 cells transfected with HA-Hop2, Flag-CEBPα or both; anti-Flag M2 beads or anti-HA with IgA/G beads in radioimmunoprecipitation buffer overnight at 4 °C; Western blot.

The target in experiment [5] is endogenous CEBPβ (CCAAT enhancer binding protein beta) (mouse (endogenous in mouse visceral adipose tissue and 3T3-L1 cells)) (UniProt P28033). As to the kind of experiment: co-IP; Nuclear extracts of wt mouse visceral adipose tissue; IP with antibodies against Hop2, CEBPα, CEBPβ or CEBPδ, anti-IgG as negative control; Western blot; endogenous proteins.
For experiment [6], the target named is endogenous CEBPα (CCAAT enhancer binding protein alpha) (mouse (endogenous in mouse visceral adipose tissue and 3T3-L1 cells)) (UniProt P53566). The description is as above.
Experiment [7] has as its target T4, endogenous CEBPδ (CCAAT enhancer binding protein delta) (mouse (endogenous in mouse visceral adipose tissue and 3T3-L1 cells)) (UniProt Q00322).
T4 sequence: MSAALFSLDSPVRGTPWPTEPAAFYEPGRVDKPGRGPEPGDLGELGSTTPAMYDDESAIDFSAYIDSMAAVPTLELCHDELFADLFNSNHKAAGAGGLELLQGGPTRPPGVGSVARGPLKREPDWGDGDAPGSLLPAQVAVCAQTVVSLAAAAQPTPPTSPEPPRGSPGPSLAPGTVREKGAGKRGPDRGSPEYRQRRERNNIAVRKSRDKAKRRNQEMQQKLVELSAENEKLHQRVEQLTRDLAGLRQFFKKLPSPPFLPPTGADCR
The experiment is described as above.

Experiment [8] deals with endogenous CEBPβ (CCAAT enhancer binding protein beta) (mouse (endogenous in mouse visceral adipose tissue and 3T3-L1 cells)) (UniProt P28033). The experiment can be described thus: co-IP; Nuclear extracts of differentiating 3T3-L1 cultures after adipogenic induction (day 2 for CEBPβ and CEBPδ, day 4 for CEBPα); endogenous proteins; Western blot.
Experiment [9] deals with endogenous CEBPα (CCAAT enhancer binding protein alpha) (mouse (endogenous in mouse visceral adipose tissue and 3T3-L1 cells)) (UniProt P53566). The experiment is described as above.
Experiment [10] deals with T4, endogenous CEBPδ (CCAAT enhancer binding protein delta) (mouse (endogenous in mouse visceral adipose tissue and 3T3-L1 cells)). The experiment is described as above.
In experiment [11] the target is His-tagged CEBPα (CCAAT enhancer binding protein alpha) (UniProt P53566). The experiment can be described thus: pull-down; His-CEBPα (1 μg) on Ni-NTA-agarose in PBS pH 8.0 with 10 mM imidazole, 4 °C; GST-Hop2 (1 μg) added for 2 h at 4 °C; washes with PBS with 50 mM imidazole; SDS-PAGE, Coomassie staining; GST-Hop2 alone on beads as negative control; both purified.
Another experiment addresses Flag-tagged CEBPα (UniProt P53566 1-359). The experiment can be described thus: co-IP; Nuclear extracts of COS1 cells transfected with HA-Hop2, Flag-CEBPα or both; anti-Flag M2 beads or anti-HA with IgA/G beads in radioimmunoprecipitation buffer overnight at 4 °C; Western blot.

Drawing on article PMC8528721, “Hop2 interacts with the transcription factor CEBPα and suppresses adipocyte differentiation” (The Journal of Biological Chemistry, 2021), this text covers binding for 8 molecules.

These are yes or no findings as the source states them, for the method shown. For some of these results: Binding seen in cells or lysates may run through a third protein. Some results given as binding are weak or reduced against the parent protein; the word gives no strength. For some of these results: Tags and fused reporters may be left off the sequences shown.

As for “His-tagged CEBPα (CCAAT enhancer binding protein alpha) (from UniProt P53566 1-359)”, the binding result in [1] was “binds”.
As to “endogenous CEBPα (CCAAT enhancer binding protein alpha) (from UniProt P53566-1 1-359)”, the binding entry in experiment [2] and in experiment [3] was “binds” throughout.
Take “Flag-tagged CEBPα (from UniProt P53566 1-359)”: the binding entry in experiment [4] is recorded as “binds”.
As to “endogenous CEBPβ (CCAAT enhancer binding protein beta) (from UniProt P28033-1 1-296)”, the binding result in experiment [2] and in [3] was “binds” throughout.

B1: endogenous Hop2 (homologous pairing protein 2) (protein, UniProt O35047 1-217)
chain: MSKSRAEAAAGAPGIILRYLQEQNRPYSAQDVFGNLQKEHGLGKAAVVKALDQLAQEGKIKEKTYGKQKIYFADQNQFDTVSDADLHGLDASIVALTAKVQSLQQSCRHMEAELKELTSALTTPEMQKEIQELKKECAQYTERLKNIKAATNHVTPEEKEKVYRDRQKYCKEWRKRKRMTTELCDAILEGYPKSKKQFFEEVGIETDEDHNVLLPDP
In the case of B1, the binding entry in experiment [5], in experiment [6], in experiment [7], in experiment [8], in experiment [9] and in experiment [10] was “binds” in each case.

B2: GST-Hop2 fusion protein (homologous pairing protein 2) (protein, UniProt O35047 1-217)
chain: MSKSRAEAAAGAPGIILRYLQEQNRPYSAQDVFGNLQKEHGLGKAAVVKALDQLAQEGKIKEKTYGKQKIYFADQNQFDTVSDADLHGLDASIVALTAKVQSLQQSCRHMEAELKELTSALTTPEMQKEIQELKKECAQYTERLKNIKAATNHVTPEEKEKVYRDRQKYCKEWRKRKRMTTELCDAILEGYPKSKKQFFEEVGIETDEDHNVLLPDP
Regarding B2, in experiment [11], the binding result is “binds”.

B3: hemagglutinin (HA)-tagged Hop2 (natural protein, UniProt O35047 1-217, looked up)
chain: MSKSRAEAAAGAPGIILRYLQEQNRPYSAQDVFGNLQKEHGLGKAAVVKALDQLAQEGKIKEKTYGKQKIYFADQNQFDTVSDADLHGLDASIVALTAKVQSLQQSCRHMEAELKELTSALTTPEMQKEIQELKKECAQYTERLKNIKAATNHVTPEEKEKVYRDRQKYCKEWRKRKRMTTELCDAILEGYPKSKKQFFEEVGIETDEDHNVLLPDP
Turning to B3, the binding result with Flag-tagged CEBPα is given as “binds”.

B4: endogenous CEBPδ (CCAAT enhancer binding protein delta) (protein, UniProt Q00322 1-268)
chain: MSAALFSLDSPVRGTPWPTEPAAFYEPGRVDKPGRGPEPGDLGELGSTTPAMYDDESAIDFSAYIDSMAAVPTLELCHDELFADLFNSNHKAAGAGGLELLQGGPTRPPGVGSVARGPLKREPDWGDGDAPGSLLPAQVAVCAQTVVSLAAAAQPTPPTSPEPPRGSPGPSLAPGTVREKGAGKRGPDRGSPEYRQRRERNNIAVRKSRDKAKRRNQEMQQKLVELSAENEKLHQRVEQLTRDLAGLRQFFKKLPSPPFLPPTGADCR
Turning to B4, the binding result in experiment [2] and in experiment [3] was “binds” in each case.
